According to article PMC12802938:
No constants are given. Whether binding was seen depends on the method and setting. In cells and extracts the contact can be indirect. Some results given as binding are weak or reduced against the parent protein; the word gives no strength. Tags and fused reporters may be left off the sequences shown.

The chains behind the UniProt entries cited, without tags or fusion partners.
UniProt Q5DU05: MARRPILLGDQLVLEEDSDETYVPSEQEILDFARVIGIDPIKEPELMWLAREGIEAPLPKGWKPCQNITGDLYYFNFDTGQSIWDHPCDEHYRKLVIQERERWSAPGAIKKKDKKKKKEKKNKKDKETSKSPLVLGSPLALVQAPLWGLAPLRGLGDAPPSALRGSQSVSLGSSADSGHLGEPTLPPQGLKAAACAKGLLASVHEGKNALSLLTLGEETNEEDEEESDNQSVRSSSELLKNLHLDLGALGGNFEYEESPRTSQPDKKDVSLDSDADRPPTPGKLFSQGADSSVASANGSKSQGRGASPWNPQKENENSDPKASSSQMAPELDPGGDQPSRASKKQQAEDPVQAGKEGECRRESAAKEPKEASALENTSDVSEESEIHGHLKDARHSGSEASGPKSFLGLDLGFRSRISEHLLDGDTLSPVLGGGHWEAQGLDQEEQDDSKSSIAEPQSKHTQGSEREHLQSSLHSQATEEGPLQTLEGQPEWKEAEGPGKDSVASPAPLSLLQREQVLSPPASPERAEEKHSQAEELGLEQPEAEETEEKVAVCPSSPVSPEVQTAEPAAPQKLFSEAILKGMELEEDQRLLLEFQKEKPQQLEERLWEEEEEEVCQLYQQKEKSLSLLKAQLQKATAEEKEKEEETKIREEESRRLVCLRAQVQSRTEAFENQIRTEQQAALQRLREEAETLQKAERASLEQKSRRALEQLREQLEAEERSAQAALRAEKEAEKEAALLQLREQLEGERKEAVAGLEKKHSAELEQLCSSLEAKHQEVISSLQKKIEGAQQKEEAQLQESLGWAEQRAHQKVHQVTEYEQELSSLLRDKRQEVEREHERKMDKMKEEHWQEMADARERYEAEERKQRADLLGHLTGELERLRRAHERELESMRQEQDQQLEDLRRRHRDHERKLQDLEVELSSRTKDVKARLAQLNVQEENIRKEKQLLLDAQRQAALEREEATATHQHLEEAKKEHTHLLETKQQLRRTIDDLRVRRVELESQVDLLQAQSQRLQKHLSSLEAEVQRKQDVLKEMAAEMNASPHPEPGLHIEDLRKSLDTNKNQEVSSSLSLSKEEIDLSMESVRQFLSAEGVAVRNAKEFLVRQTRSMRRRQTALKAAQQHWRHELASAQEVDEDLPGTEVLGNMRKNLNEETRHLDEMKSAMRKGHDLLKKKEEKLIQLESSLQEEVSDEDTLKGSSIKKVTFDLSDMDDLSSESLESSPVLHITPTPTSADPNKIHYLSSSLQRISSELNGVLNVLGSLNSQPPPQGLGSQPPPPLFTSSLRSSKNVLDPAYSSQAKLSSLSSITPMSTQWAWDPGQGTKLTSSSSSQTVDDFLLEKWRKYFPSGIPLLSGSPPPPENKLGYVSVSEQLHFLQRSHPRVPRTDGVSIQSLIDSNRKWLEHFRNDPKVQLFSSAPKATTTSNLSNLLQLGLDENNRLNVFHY

Tests used:
[1] = target: T1, GFP-tagged CCDC92 (mouse) (UniProt Q8VDN4); experiment: co-IP; GFP-CCDC92 and mouse testis lysates, GFP-Trap agarose beads, blots with IFT74, IFT81, CEP164 and GFP antibodies
T1 sequence: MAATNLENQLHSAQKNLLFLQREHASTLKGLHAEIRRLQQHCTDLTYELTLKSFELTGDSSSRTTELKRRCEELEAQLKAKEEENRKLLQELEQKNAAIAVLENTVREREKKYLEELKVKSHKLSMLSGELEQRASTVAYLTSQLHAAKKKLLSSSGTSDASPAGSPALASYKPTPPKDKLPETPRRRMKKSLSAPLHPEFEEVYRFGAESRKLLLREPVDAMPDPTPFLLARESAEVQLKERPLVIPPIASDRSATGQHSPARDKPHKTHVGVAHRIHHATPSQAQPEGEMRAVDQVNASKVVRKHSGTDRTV

[2] = target: T1, GFP-tagged CCDC92 (mouse); experiment: co-IP; GFP-tagged CCDC92 (whole, fragments, HCR deletions) exogenously expressed in HEK293T cells, GFP-Trap agarose beads, blots with IFT74, IFT81, CEP164 and GFP antibodies

In the case of “CEP164 (endogenous, mouse testis) (from UniProt Q5DU05 1-1446)”, the binding [1] is reported as “binds”.

B1: IFT81 (endogenous, mouse testis) (protein, UniProt O35594 1-676)
chain: MSDQIKFIVDSLNKEPFKKNYNLITFDSLGPMQLLQVLNDVLAEIDPKQDVDIREEMPEQTAKRMLNLLGILKYKPPGNATDMSTFRQGLVIGSKPVIYPVLHWLLQRSNELKKRAYLARFLIKLEVPSEFLQDETVADTNKQYEELMEAFKTLHKECEQLKTSGFSTAEIRRDISAMEEEKDQLMKRVERLKKRVETVQNHQRMLKIARQLRVEKEREEFLAQQKQEQKNQLFHAVQRLQRVQNQLKSMRHAAADAKPESLMKRLEEEIKFNSYMVTEKFPKELESKKKELHFLQKVVSEPAMGHSDLLELETKVNEVNTEINQLIEKKMMRNEPIEGKLSLYRQQASIISRKKEAKAEELQETKEKLASLEREVLVKTNQTREFDGTEVLKGDEFKRYVSKLRSKSTVFKKKHQIIAEFKAEFGLLQRTEELLKQRQETIQHQLRTIEEKKGISGYSYTQEELERVSALKSEVDEMKGRTLDDMSEMVKKLNSLVSEKKSALAPVIKELRQLRQKCQELTQECDEKKAQYDSCAAGLESNRSKLEQEVRGLREECLQEESKYHYTNCMIKNLEVELRRATDEMKAYVSSDQQEKRKAIREQYTKNITEQENLGKKLREKQKAVRESHGPNMKQAKMWRDLEQLMECKKQCFLKQQSPASIGQVIQEGGEDRLVL
With B1 the binding [1] was “binds”.

B2: IFT81 (endogenous, HEK293T) (protein, UniProt Q8WYA0 1-676)
chain: MSDQIKFIMDSLNKEPFRKNYNLITFDSLEPMQLLQVLSDVLAEIDPKQLVDIREEMPEQTAKRMLSLLGILKYKPSGNATDMSTFRQGLVIGSKPVIYPVLHWLLQRTNELKKRAYLARFLIKLEVPSEFLQDETVADTNKQYEELMEAFKTLHKEYEQLKISGFSTAEIRKDISAMEEEKDQLIKRVEHLKKRVETAQNHQWMLKIARQLRVEKEREEYLAQQKQEQKNQLFHAVQRLQRVQNQLKSMRQAAADAKPESLMKRLEEEIKFNLYMVTEKFPKELENKKKELHFLQKVVSEPAMGHSDLLELESKINEINTEINQLIEKKMMRNEPIEGKLSLYRQQASIISRKKEAKAEELQEAKEKLASLEREASVKRNQTREFDGTEVLKGDEFKRYVNKLRSKSTVFKKKHQIIAELKAEFGLLQRTEELLKQRHENIQQQLQTMEEKKGISGYSYTQEELERVSALKSEVDEMKGRTLDDMSEMVKKLYSLVSEKKSALASVIKELRQLRQKYQELTQECDEKKSQYDSCAAGLESNRSKLEQEVRRLREECLQEESRYHYTNCMIKNLEVQLRRATDEMKAYISSDQQEKRKAIREQYTKNTAEQENLGKKLREKQKVIRESHGPNMKQAKMWRDLEQLMECKKQCFLKQQSQTSIGQVIQEGGEDRLIL
For B2, the binding [2] was “binds”.
